Patent US8710091B2, “Imidazolidine-2,4-dione derivatives, and use thereof as a cancer drug” (Ipsen Pharma S.A.S., priority 2009, dated 2014)
Some results were stated once for a whole list of compounds, not compound by compound. At least one compound was matched to its structure with a doubt left.

Tested on: DU145 cells
Assay: Antiproliferative activity on DU-145 in complete medium (WST-1)
Format: cell-based
Conditions: 144 h incubation, read-out: IC50 on the DU145 cells in culture (concentration inhibiting cell proliferation by 50%)
Protocol: The anti-proliferative activity of the compounds of the present invention is determined on DU-145 in complete medium.
Maintenance of the DU-145 line is carried out in DMEM, 10% of foetal calf serum, 2 mM of glutamine, 100 U/ml of penicillin, 0.1 mg/ml of streptomycin. • Seeding the plates: • The DU145 line is seeded at 400 or 800 cells/well in 90 μl of DMEM complete medium in 96-well plates (TPP). • Treatment of the cells: 24 h after the seeding, the cells are treated with 10 μl/well of compound diluted in the culture medium. Experiments showing the dose-effect of the compound are carried out on a scale of 1 nM to 100 μM. The concentrations used are the following: 1 nM/10/30/100/300/1000/3000/10,000/100,000 nM. The cells are incubated for 144 h at 37° C., 5% CO2. • Reading: On D6, 10 μL, of cell proliferation reagent WST-1 (Roche ref 1644807) is added to each well. After incubation for 2 to 4 hours at 37° C., 5% CO2, the absorbance at 450 nm is measured by spectrophotometry (Envision, Perkin Elmer). • Results: The experiments are carried out in duplicate and the best compounds are tested twice. […] 4. Measurement of the Disappearance of the Androgen Receptor

Structure (SMILES): CC1(C)C(=O)N(c2ccc([N+](=O)[O-])c(C(F)(F)F)c2)C(=O)N1CCCCCCCCCS(=O)(CCCC(F)(F)C(F)(F)F)=NC(=O)C(F)(F)F (stereo not shown) [Example 45, N-[(9-{5,5-dimethyl-3-[4-nitro-3-(trifluoromethyl)phenyl]-2,4-dioxoimidazolidin-1-yl}nonyl)(oxido)(4,4,5,5,5-pentafluoropentyl)-λ^4-sulphanylidene]-2,2,2-trifluoroacetamide]
- IC50: > 10 µM
